# Experimental data as given in PubChem BioAssay AID1671190 (National Center for Advancing Translational Sciences (NCATS), 2021).
# Protein sequences, listed by entry. Tags and fused reporters are not part of them. Lines headed by an entry give the natural chain unless they say otherwise; changes in a name come on top.
# UniProt P18054: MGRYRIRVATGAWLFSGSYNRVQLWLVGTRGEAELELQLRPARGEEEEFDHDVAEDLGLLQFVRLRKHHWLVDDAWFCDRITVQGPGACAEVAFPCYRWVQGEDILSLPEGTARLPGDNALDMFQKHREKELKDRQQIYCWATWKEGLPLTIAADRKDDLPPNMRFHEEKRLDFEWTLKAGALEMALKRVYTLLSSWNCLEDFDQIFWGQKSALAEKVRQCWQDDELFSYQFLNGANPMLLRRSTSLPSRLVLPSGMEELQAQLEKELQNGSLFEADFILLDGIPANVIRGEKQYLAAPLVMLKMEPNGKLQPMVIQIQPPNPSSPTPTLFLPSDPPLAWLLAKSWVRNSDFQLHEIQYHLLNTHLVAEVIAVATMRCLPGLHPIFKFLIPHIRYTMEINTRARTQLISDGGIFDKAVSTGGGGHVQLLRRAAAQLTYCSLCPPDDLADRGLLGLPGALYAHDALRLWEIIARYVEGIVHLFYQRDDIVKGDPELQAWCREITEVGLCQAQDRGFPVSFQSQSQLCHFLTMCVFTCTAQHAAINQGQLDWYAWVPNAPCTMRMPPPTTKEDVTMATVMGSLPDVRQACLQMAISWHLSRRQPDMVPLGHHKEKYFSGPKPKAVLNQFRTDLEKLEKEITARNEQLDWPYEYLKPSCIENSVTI
# Values joined by “and” are separate entries in the source; they are usually repeats but may differ in a detail not shown here. Identical values can stand only once. In all, about 580,000 compounds went through this assay and about 6,100 (1.1%) were called active. The inconclusive results got no clear call from the source; some entries with a clear call stand among them for comparison. The call rests on the fitted dose curve; in most records, active means well fitted inhibition curve with a large enough effect; inconclusive means small, poorly fitted or top-dose-only effect, or another doubt; inactive means no such curve, though single readings can be large or run the other way. Potencies beside an inconclusive call are fits to weak or partial responses and may not hold up.
# Molecular target: Polyunsaturated fatty acid lipoxygenase ALOX12 (Homo sapiens) (UniProt P18054)
# Assay: Primary qHTS assay for inhibitors of human arachidonate 12S-lipoxygenase (ALOX12): Round 2
# Conditions: purified 12hLO, xylenol orange hydroperoxide absorbance; activity change, negative = inhibition: at 108 µM (top of the series) unless noted
# Procedure, shortened: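 Purified human 12hLO at 150 nM in 25 mM Hepes, 0.01% Triton X-100, pH 7.0, preincubated 15 min at room temperature with compound. Reaction started with 40 uM arachidonic acid, 30 min at room temperature. Hydroperoxide measured by Fe-xylenol orange, 573/405 nm absorbance ratio.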
# On the % scale 0 is the no-effect control and ±100 the full control effect; potency means the concentration at half of the fitted maximal effect.
SMILES,Potency,"activity change, negative = inhibition"
Cc1c(NC(=O)C(=O)/C=C(\O)c2ccc(Cl)cc2)c(=O)n(-c2ccccc2)n1C,"inconclusive: 25.1 µM [inhibitor, partial curve, poor fit]",–
Cc1cccc(NCc2nc(SCC(=O)Nc3ccccc3)n[nH]2)c1,–,inactive: 141%
CCc1ccc2[nH]c(C(=O)O)cc2c1,–,inactive: -12.6%
COc1ccc(Cc2c(-c3ccc(Cl)cc3)nc3c(C)cc(Br)cn23)c(C)c1,"inconclusive: 44.7 µM [inhibitor, partial curve, poor fit]",–
COc1ccc(OC)c(C(=O)COC(=O)COc2ccccc2)c1,"inconclusive: 100 µM [inhibitor, partial curve, poor fit]",–
Cc1ccc(-c2nnc(/C=C/c3ccccc3)o2)cc1,–,inactive: -11.5%
O=C1N(c2ccc(F)cc2)CCOC12CCN(Cc1ccc3[nH]ccc3c1)CC2,"inconclusive: 126 µM [inhibitor, partial curve, poor fit]",–
CCOC(=O)c1c(NC(=O)C(C)Sc2cn(CCNC(=O)c3ccc(OC)cc3)c3ccccc23)sc2c1CCC2 (stereo unspecified),–,inactive: -10.2%
COc1ccc(/C=C2/SC(=S)NC2=O)cc1OCc1ccccc1,–,inactive: 4.58%
Cc1ccc(C(=O)N2CCN(C(=O)c3nnn4c3COC(c3ccc(F)cc3)C4)CC2)cc1C (stereo unspecified),"inconclusive: 44.7 µM [inhibitor, partial curve]",–
COc1ccccc1Nc1nc(-c2ccc3c(c2)NC(=O)CO3)cs1,"inactive and inconclusive: 39.8 µM [inhibitor, partial curve]",–
CCCOCc1cc(CN2CCN(c3ccccc3OC)CC2)c(O)c2ncccc12,"inconclusive: 126 µM [inhibitor, single point]",–
CC1CCN(C(=S)c2cn(Cc3cccc(F)c3)c3ccccc23)CC1,active: 44.7 µM,–
O=C(Nc1ccc2oc(-c3ccccc3F)cc(=O)c2c1)c1ccccc1Br,–,inactive: 1.17%
CCCCCCCCCCSCC(=O)OCC(=O)c1ccc(-c2ccccc2)cc1,"inconclusive: 100 µM [inhibitor, single point]",–
COC(=O)C1=CNC=C(C(=O)OC)C1c1ccc(C(F)(F)F)cc1,"inconclusive: 112 µM [inhibitor, partial curve, poor fit]",–
O=C(N[C@H]1CO[C@H]2[C@@H]1OC[C@@H]2n1nnnc1Oc1ccccc1)c1ccc(C(F)(F)F)cc1,–,inactive: -0.574%
COCCCOc1ccnc(CS(=O)c2nc3ccccc3[nH]2)c1C (stereo unspecified),"inconclusive: 2.24 µM [inhibitor, full curve, poor fit] and active: 44.7 µM",–
O=C(Nc1nnc([C@@H]2C[C@H](O)[C@@H](CO)O2)s1)Nc1cccc2ccccc12,"inconclusive: 100 µM [inhibitor, partial curve, poor fit]",–
COc1ccc(-c2cc(N3CCCN(C(=O)c4ccccc4)CC3)n[nH]2)cc1,"inconclusive: 6.31 µM [inhibitor, full curve, poor fit]",–
Cc1ccccc1CCN1CCC(CN(C(=O)c2cnn(C(C)C)c2)C2CCCC2)CC1,"inconclusive: 79.4 µM [inhibitor, partial curve, poor fit]",–

SMILES,Potency,"activity change, negative = inhibition"
Cc1nc(Nc2ccc(F)cc2)nc(Nc2ccc(F)cc2)c1[N+](=O)[O-],–,inactive: -11.1%
CCOC(=O)CC(NS(=O)(=O)c1cc(-c2cc(C)no2)ccc1C)c1ccc(C)cc1 (stereo unspecified),–,inactive: -27.9%
COc1ccc(N2CCN(c3nc4ccccc4n4c(C)nnc34)CC2)cc1,"inconclusive: 100 µM [inhibitor, partial curve, poor fit]",–
C[C@H](CO)N1C[C@H](C)[C@@H](CN(C)C(=O)Nc2ccc(C(F)(F)F)cc2)Oc2c(NC(=O)Cc3ccccc3)cccc2C1=O,–,inactive: -0.163%
S=C(NCCSCc1ccc(Cl)cc1Cl)Nc1ccccc1,"inconclusive: 50.1 µM [inhibitor, partial curve, poor fit]",–
COc1ccc(-n2c(-c3cc(-c4ccccc4)sc3N)n[nH]c2=S)cc1,–,inactive: 0%
Cc1noc2c(-c3ccc(N4CCOCC4)cc3)cc(-c3cccs3)nc12,"inconclusive: 39.8 µM [inhibitor, full curve]",–
COc1ccc(C(C(=O)NC2CCCCC2)N(C(=O)Cc2c[nH]c3ccccc23)c2ccccc2)cc1OC (stereo unspecified),"inconclusive: 89.1 µM [inhibitor, partial curve, poor fit]",–
O=C1Cc2cc(S(=O)(=O)N3CCN(c4ccc(O)cc4)CC3)ccc2N1,"inconclusive: 50.1 µM [inhibitor, partial curve, poor fit]",–
CC(C)C[C@H]1CNC(=O)C(=O)N1C[C@@H]1CCCN1C[C@H](Cc1ccccc1)N1C[C@H](Cc2ccccc2)N(CC2CCCCC2)C(=O)C1=O,"inconclusive: 50.1 µM [inhibitor, partial curve, poor fit]",–
Nc1cc(C(F)(F)F)c(-c2cc(N3CCOCC3)nc(N3CCOCC3)n2)cn1,"inconclusive: 19.3 µM [inhibitor, single point]",–
CC(=O)n1nc(-c2ccccc2)cc1-c1ccccc1,"inconclusive: 100 µM [inhibitor, single point]",–
Cc1oc(-c2ccccc2)cc1C(=O)Nc1cccc(/C=C/C(=O)O)c1,–,inactive: -11.8%
CCc1nc2c(OCCOC)cccn2c1N(C)C(=O)c1ccc(C)cc1,"inconclusive: 79.4 µM [inhibitor, single point]",–
CCOc1ccc(/C(O)=C2/C(=O)C(=O)N(CCOCCO)C2c2ccc(F)cc2)cc1 (stereo unspecified),"inconclusive: 7.94 µM [inhibitor, partial curve, poor fit]",–
CC(C)c1nnc(NC(=O)COc2ccccc2[N+](=O)[O-])s1,"inconclusive: 112 µM [inhibitor, partial curve, poor fit]",–
CCC(C)NC(=O)CSc1nc(C2CC2)nc(C)c1C(C)=O (stereo unspecified),"inconclusive: 112 µM [inhibitor, single point]",–
CCC1CCc2sc(C(=O)NC3CCN(Cc4ccccc4)CC3)cc2C1 (stereo unspecified),"inconclusive: 50.1 µM [inhibitor, partial curve, poor fit]",–
O=C(CC1N=C2c3ccccc3N=C(SCC(=O)Nc3ccccc3F)N2C1=O)NCc1ccc2c(c1)OCO2 (stereo unspecified),"inconclusive: 100 µM [inhibitor, partial curve, poor fit]",–
COc1cc2c(cc1OC)/C(=C/S(=O)(=O)c1cccc(C)c1)NCC2,"inconclusive: 17.8 µM [inhibitor, full curve]",–
CC(C)COc1ccc(C(=O)N2CCC(c3nc4ccccc4s3)CC2)cc1,"inconclusive: 79.4 µM [inhibitor, partial curve, poor fit]",–

SMILES,Potency,"activity change, negative = inhibition"
Cc1ccc(/C=C2\C(=N)N3N=C(CC(=O)N4CCOCC4)SC3=NC2=O)o1,"inconclusive: 39.8 µM [inhibitor, partial curve, poor fit]",–
CCOC(=O)c1sc(-c2ccc(F)cc2)cc1N,"inconclusive: 50.1 µM [inhibitor, partial curve, poor fit]",–
COc1ccc(S(=O)(=O)N2CCc3ccccc32)cc1C(=O)N1CCN(c2ccncc2)CC1,"inconclusive: 126 µM [inhibitor, partial curve, poor fit]",–
COc1ccc(OC)c(Nc2nc(-c3sc(N)nc3C)cs2)c1,"inconclusive: 50.1 µM [inhibitor, partial curve, poor fit]",–
Cc1cccc(C)c1NC(=O)CN(C)S(=O)(=O)c1ccc2[nH]c3c(c2c1)CCCC3,"inconclusive: 126 µM [inhibitor, partial curve, poor fit]",–
CC(=O)N=c1sc(S(N)(=O)=O)nn1C,–,inactive: 0.984%
Cc1cc(C)c2c(=O)n(CC(=O)Nc3cccc(F)c3)sc2n1,"inconclusive: 0.282 µM [inhibitor, full curve, poor fit]",–
COc1ccc(C(=O)N2CCC(c3n[nH]c(=O)n3Cc3ccc(F)cc3)CC2)cn1,"inconclusive: 7.94 µM [inhibitor, partial curve, poor fit]",–
Cc1cc(O)c(-c2n[nH]c3c2C(c2cccc(O)c2)N(Cc2cccnc2)C3=O)cc1Cl (stereo unspecified),"inconclusive: 7.94 µM [inhibitor, full curve, poor fit]",–
CCc1noc(C(C)N2CCN(c3oc(C4CC4)nc3C#N)CC2)n1 (stereo unspecified),–,inactive: -7.37%
CCCCC(CC)C(=O)Nc1cc(C(=O)NCCC)ccc1N1CCC2(CC1)CC(c1ccccc1)=NO2 (stereo unspecified),–,inactive: -10.1%
O[C@@H]1CC(CNCc2cccc(Cl)c2)(COc2ccccc2)C[C@@H]1O (stereo partly specified),"inconclusive: 112 µM [inhibitor, partial curve]",–
O=C(COC(=O)c1ccc2ccccc2n1)c1ccccc1,"inconclusive: 11.2 µM [inhibitor, partial curve, poor fit]",–
CCc1nc2cc(N3CCC(C(=O)NC(C)c4cccnc4)CC3)cnc2nc1CC (stereo unspecified),–,inactive: -0.733%
COc1cc(OC)c(NC(=O)C(C)n2nc(-c3ccc(C)cc3)c3c(c2=O)CCCC3)cc1Cl (stereo unspecified),"inconclusive: 8.91 µM [inhibitor, full curve, poor fit]",–
O=C(Nc1cc(F)ccc1F)c1cnn2c(C(F)F)cc(-c3ccccc3)nc12,–,inactive: -8.37%
COc1ccccc1-c1nnc2n1C(C(=O)NCCc1ccc(Cl)cc1)CC2 (stereo unspecified),"inconclusive: 89.1 µM [inhibitor, partial curve, poor fit]",–
O=C1NC[C@H](c2ccccc2)OC(=O)[C@H](Cc2ccc(F)cc2)C/C=C\C[C@@H]1CC(=O)N(CCO)Cc1ccccc1,"inconclusive: 126 µM [inhibitor, partial curve, poor fit]",–
c1ccc(-n2ncc(-c3nn[nH]n3)n2)cc1,"inconclusive: 39.8 µM [inhibitor, partial curve, poor fit]",–
